For some of these results: The exact form of at least one protein or probe is not confirmed. For some of these results: Negatives hold for the conditions tested. For some of these results: Tags and fusion partners may be left off the protein sequences shown.
Legend:
[1] = target: T1, Human neutrophil elastase (Homo sapiens) (UniProt P08246); test: filter binding; conditions: purified native protein, protein details: Athens Research and Technology; for Kd: 2'-NH2 all pyrimidines
T1 sequence (looked up, limits assumed): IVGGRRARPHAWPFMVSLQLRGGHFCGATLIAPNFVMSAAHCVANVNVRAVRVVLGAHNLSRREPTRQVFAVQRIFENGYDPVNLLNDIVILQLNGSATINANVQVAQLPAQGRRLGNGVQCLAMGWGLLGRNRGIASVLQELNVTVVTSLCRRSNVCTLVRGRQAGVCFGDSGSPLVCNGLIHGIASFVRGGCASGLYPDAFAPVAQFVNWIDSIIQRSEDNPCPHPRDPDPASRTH

Chains of the proteins cited; added tags and fusions are not shown. Residues count along the entry.
UniProt P09038, 143-288: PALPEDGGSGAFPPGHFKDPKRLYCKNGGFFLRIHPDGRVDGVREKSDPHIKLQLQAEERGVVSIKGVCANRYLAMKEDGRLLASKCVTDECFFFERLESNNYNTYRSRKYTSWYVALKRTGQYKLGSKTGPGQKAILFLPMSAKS

[2] = target: T1, Human neutrophil elastase (Homo sapiens); test: activity in cells; conditions: 2'-NH2 all pyrimidines; inhibits elastase-induced endothelial cell detachment; purified native protein; protein details: Athens Research and Technology; dose not given here
[3] = target: Basic fibroblast growth factor (bFGF) (UniProt P09038); test: filter binding; conditions: 2'-NH2 all pyrimidines; specificity control; purified recombinant protein
[4] = target: T2, Human neutrophil elastase irreversibly complexed with N-methoxysuccinyl-Ala-Ala-Pro-Val-chloromethyl ketone (Homo sapiens) (UniProt P08246); test: filter binding; conditions: 2'-NH2 all pyrimidines; active site blocked; purified native protein
T2 sequence (looked up, limits assumed): T1 sequence (looked up, limits assumed)

[5] = 150 mM KCl, 100 mM Tris pH 7.0, 2 mM MgCl2
[6] = 150 mM LiCl, 100 mM Tris pH 7.0, 2 mM MgCl2

| Sequence | Kd [1, 5] [nM] | Kd [1, 6] [nM] | Kd ([1]; 150 mM Tris-HCl, 2 mM MgCl2) [nM] | functional effect of the aptamer [2] | other results |
| --- | --- | --- | --- | --- | --- |
| GGGAGCUCAGAAUAAACGCUCAAGAGUAGGCUUGACGCCUGGGGGGGUAUGGCUUCGACUGCGUUCGACAUGAGGCCCGGAUCCGGC [ligand 30 (class I; ligand 12 same SEQ ID)] | 3.8 | 581 | 38 | active | Kd ([1]; binding buffer 150 mM NaCl, 100 mM Tris pH 7.0, 2 mM MgCl2, 6 mM KCl, 37C, ligand 12 (same SEQ) also 10 nM in Table 4): 10 nM |
| GGGAGCUCAGAAUAAACGCUCAAGGAAUGAAUGUGAUGAACAGGUGUCGGGGUGGAUGGGUGGUUCGACAUGAGGCCCGGAUCCGGC [ligand 9 (class III)] | 378 | 231 | 34 |  | Kd ([1]; 6 mM KCl, 2 mM MgCl2, pH 7.0, 9.7 nM in Table 3): 10 nM |
| GGGAGCUCAGAAUAAACGCUCAAGGUAGACAUACGCCUUGGGGGGGUAUCAGGGUAUAUGGUAUUCGACAUGAGGCCCGGAUCCGGC [ligand 24 (class II)] |  |  |  | active | Kd [3]: > 1000 nM |
| GGGAGCUCAGAAUAAACGCUCAAGGUAGACAUACGCCUUGGGGGGGUGCCAGGGUAUAUGGUAUUCGACAUGAGGCCCGGAUCCGGC [ligand 34 (class II)] | 5.5 | 669 | 59 |  | Kd [4]: 26 nM; Kd ([1]; 6 mM KCl, 2 mM MgCl2, pH 7.0): 8 nM; Kd ([1]; native elastase control in same experiment as the chloromethyl ketone complex): 25 nM |
| GGGAGCUCAGAAUAAACGCUCAAUGCCCGGCAGUACUGCACGGCCUCGGGGGGGACCAGGGAGUUCGACAUGAGGCCCGGAUCCGGC [ligand 19 (class IV)] |  |  |  | active |  |
| TAGCGATACTGCGTGGGGGGGGGGGGCCAGCAGTCTCGTGCGGTACTTGAGCA [17-LQT] |  |  |  |  | binding result ([1]; 18-carbon ethylene glycol linker (L) replacing connecting loop nucleotides (n positions) [L = 18-carbon ethylene glycol linker (left out) between 17/18, 20/21, 23/24], no significant affinity, single-stranded DNA, letters built from the parent sequence and the stated change, variant of DNA-17): no binding |
